In data set [1] the test system is PC-3 (human prostate carcinoma). As to the kind of experiment: MTT assay, PC-3. Type of data set: cell-based. To be noted: IC50 HDF / IC50 PC-3. As for the experimental part: (§1) All the cell lines and mediums were obtained from the American Type Culture Collection (ATCC) supplied by LGC-Standards (Lomianki, Poland). Human cancer cell lines were cultured as follows: HeLa (human cervix carcinoma) and KB (human oral squamous carcinoma) lines were cultured in DMEM (Dulbecco’s Modified Eagle’s Medium); MCF-7 (human breast carcinoma) and A-549 (human lung carcinoma) were cultured in RPMI 1640 medium; PC-3 (human prostate carcinoma) was cultured in F-12K medium; SKOV-3 (human ovarian cystadenocarcinoma) was cultured in McCoy’s modified medium; HDF (human normal dermal fibroblasts) was cultured in Fibroblast Basal Medium. Each medium was supplemented with 10% fetal bovine serum, 1% L- glutamine and 1% penicillin/streptomycin solution. The cell lines were kept in an incubator at 37 °C.
(§2) All the tested cell lines (HeLa, KB, MCF-7, A-549, PC-3, SKOV-3 and HDF) were subjected to MTT assay. In short, this assay is based on the reaction between mitochondria enzymes (dehydrogenases) of tested cell lines and 3-(4,5-dimethylthiazol-2-yl)-2,5-diphenyltetrazolium bromide (MTT). The final product of this reaction gives violet formazan crystals. The number of live cells is proportional to the amount of formazan and is represented by the violet dye reagent. The details of the experiments are given in [19].
For orientation: Tetrazolium dyes change colour on reduction, which living cells bring about.

The subject of data set [2] is SKOV-3 (human ovarian carcinoma). As to the kind of experiment: MTT assay, SKOV-3. Type of data set: cell-based. To be noted: IC50 HDF / IC50 SKOV-3. As for the experimental part: as §1, §2

Regarding `CC(=O)OC1CCC2(C)C(CCC3(C)C2CCC2C4C5OCC4(CCC5(C)C)CCC23C)C1(C)C` (stereo not shown) [3b, 3-O-Acetylallobetulin], the “Selectivity index (SI), PC-3” value in data set [1] stood at 1.19. Further, the “Selectivity index (SI), SKOV-3” value in data set [2] is 1.17.

Regarding `C=C(C)[C@@H]1CC[C@]2(C)CC[C@]3(C)[C@H](CC[C@@H]4[C@@]5(C)CC[C@H](OC(C)=O)C(C)(C)[C@@H]5CC[C@]43C)[C@@H]12` [6b, 3-O-Acetylolupeol], the “Selectivity index (SI), PC-3” value in data set [1] was 1.58. The “Selectivity index (SI), SKOV-3” value in data set [2] was determined as 1.66.

The values are drawn from PMC12196235, “Enhancing the Pharmacological Properties of Triterpenes Through Acetylation: An Anticancer and Antioxidant Perspective” (Molecules, 2025).
